This passage reports binding results from doi:10.1101/258632.

Protein sequences, listed by entry. Tags and fused reporters are not part of them. Residues count along the entry.
UniProt O75581, residues 20-1613: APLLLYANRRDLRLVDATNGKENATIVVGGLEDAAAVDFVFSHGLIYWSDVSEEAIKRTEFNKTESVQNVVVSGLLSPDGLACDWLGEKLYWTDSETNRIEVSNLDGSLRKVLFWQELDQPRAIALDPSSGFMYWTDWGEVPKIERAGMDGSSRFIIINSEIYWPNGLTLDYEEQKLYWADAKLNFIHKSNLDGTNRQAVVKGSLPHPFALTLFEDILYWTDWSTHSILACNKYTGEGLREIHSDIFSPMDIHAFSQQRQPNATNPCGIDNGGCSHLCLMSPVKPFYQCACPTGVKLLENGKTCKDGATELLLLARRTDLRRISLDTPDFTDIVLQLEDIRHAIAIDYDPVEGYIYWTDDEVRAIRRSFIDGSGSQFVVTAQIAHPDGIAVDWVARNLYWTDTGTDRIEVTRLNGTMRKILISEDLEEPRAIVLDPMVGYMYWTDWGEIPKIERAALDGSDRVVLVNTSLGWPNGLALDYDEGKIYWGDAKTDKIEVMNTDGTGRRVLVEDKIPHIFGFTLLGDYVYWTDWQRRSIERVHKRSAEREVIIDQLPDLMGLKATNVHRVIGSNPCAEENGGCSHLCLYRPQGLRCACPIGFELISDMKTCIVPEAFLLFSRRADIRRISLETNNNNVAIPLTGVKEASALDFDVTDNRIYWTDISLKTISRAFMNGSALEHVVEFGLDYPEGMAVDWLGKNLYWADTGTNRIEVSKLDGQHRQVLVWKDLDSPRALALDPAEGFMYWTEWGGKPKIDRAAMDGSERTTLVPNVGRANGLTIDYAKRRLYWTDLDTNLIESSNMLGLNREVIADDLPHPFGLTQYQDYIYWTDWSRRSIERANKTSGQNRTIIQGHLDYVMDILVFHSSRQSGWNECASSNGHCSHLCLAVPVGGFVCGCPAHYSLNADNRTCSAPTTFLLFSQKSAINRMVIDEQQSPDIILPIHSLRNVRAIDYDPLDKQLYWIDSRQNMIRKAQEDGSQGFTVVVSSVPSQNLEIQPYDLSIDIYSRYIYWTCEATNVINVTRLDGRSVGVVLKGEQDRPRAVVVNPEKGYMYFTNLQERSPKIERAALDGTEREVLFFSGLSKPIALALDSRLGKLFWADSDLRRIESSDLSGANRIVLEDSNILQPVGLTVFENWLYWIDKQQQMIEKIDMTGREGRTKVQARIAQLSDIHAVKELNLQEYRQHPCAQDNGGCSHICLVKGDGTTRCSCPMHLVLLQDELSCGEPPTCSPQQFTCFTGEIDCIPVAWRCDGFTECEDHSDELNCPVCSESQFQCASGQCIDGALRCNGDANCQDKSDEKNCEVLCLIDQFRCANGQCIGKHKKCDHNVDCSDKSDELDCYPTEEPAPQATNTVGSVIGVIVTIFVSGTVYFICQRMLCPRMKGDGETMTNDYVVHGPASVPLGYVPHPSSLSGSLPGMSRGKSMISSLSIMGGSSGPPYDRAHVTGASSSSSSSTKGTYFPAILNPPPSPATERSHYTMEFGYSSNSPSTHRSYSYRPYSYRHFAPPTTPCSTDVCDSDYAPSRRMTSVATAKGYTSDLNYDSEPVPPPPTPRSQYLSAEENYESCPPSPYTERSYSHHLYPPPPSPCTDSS
UniProt Q2M2I8: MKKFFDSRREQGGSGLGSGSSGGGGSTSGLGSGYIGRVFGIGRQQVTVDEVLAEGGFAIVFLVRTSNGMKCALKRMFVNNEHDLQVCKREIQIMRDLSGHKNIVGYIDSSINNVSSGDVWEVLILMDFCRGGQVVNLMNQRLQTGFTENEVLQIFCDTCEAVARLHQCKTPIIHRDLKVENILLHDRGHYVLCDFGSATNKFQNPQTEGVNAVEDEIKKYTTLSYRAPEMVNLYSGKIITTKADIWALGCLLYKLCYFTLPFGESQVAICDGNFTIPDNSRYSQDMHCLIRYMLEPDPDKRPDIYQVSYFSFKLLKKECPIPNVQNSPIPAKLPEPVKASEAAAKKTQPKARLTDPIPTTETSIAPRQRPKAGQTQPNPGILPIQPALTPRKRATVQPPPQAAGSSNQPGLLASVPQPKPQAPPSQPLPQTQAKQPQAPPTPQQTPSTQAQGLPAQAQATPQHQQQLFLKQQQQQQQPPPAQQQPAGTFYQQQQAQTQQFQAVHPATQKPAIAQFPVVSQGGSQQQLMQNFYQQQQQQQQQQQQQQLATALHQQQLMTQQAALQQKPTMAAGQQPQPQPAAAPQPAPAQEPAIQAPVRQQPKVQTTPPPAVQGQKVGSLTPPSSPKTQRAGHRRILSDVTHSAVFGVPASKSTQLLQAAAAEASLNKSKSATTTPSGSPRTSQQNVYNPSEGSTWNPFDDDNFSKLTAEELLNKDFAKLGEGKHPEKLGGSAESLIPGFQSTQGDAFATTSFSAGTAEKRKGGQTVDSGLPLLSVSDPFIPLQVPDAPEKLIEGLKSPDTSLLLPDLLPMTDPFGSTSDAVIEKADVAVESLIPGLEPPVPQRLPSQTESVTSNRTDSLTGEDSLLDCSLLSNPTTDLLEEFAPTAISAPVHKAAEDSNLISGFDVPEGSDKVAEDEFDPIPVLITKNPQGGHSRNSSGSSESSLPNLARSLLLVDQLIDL

These are yes or no findings as the source states them, for the method shown. In cells and extracts the contact can be indirect. Some entries that bind do so weakly or less than the wild type.

In this test the target is HA-LRP6 (over-expressed WNT co-receptor LRP6) (UniProt O75581). Nature of the test: co-IP.

In the case of “endogenous AAK1 (from UniProt Q2M2I8 1-961) (enzyme)”, the binding result is recorded as “binds”.

With “FLAG-AAK1 (AP2 Associated Kinase 1, over-expressed) (from UniProt Q2M2I8 1-961) (enzyme)”, the binding result was “binds”.
